Data on three sequences can be found in patent publication US6297356, “Telomere repeat binding factors and diagnostic and therapeutic use thereof” (The Rockfeller University).

Chains of the proteins cited; added tags and fusions are not shown. Chains listed by the source or under a name are the forms on record and can include a tag or linker.
UniProt O35144, other isoform, or with tags, fused parts or gaps: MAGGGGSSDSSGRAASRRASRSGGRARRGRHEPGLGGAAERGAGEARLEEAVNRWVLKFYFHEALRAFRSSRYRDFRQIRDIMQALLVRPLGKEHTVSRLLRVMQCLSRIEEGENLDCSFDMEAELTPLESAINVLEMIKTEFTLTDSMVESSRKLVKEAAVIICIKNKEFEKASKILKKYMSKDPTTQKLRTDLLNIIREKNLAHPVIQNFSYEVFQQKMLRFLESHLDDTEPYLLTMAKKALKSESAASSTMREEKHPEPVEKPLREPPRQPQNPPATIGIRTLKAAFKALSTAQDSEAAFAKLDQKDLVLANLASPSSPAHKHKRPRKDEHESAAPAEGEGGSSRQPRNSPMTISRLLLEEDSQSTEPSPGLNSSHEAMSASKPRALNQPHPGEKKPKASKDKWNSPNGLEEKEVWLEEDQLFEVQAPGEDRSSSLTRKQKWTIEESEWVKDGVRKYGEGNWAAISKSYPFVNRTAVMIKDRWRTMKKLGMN
TRF1 (HeLa TRF) (Homo sapiens), one chain, as listed by the source: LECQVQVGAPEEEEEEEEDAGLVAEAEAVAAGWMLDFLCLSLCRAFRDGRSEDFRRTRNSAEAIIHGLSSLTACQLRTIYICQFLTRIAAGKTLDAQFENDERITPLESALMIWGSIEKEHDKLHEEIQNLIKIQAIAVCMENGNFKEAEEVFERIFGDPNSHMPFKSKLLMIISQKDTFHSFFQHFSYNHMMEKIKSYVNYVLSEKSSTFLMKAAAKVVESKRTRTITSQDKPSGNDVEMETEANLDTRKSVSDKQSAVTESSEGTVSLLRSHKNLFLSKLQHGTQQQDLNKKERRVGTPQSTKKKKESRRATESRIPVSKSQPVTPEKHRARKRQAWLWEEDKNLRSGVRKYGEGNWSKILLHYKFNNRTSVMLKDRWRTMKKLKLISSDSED

Data set [1] concerns the target TRF2 deltaN-49 (Mus musculus) (UniProt O35144). The experiment in a line: competition with a labelled probe. The conditions noted are these: protein in a lysate after overexpression; protein details: FLAG; single-stranded DNA.
Data set [2] deals with TRF1 (HeLa TRF) (Homo sapiens). Put plainly: EMSA. Particulars: highly purified protein needs casein or certain other added proteins for binding; purified native protein; label: labelled.
The target in data set [3] is TRF2 full length (Mus musculus) (UniProt O35144). The experiment in a line: EMSA. The conditions noted are these: complex seen only in presence of anti-FLAG M2 antibody; protein in a lysate after overexpression; protein details: N-terminal FLAG; label: labelled. (A gel shift assay detects complexes by their altered migration in electrophoresis.)
Data set [4] concerns the target TRF2 deltaN-49 (Mus musculus) (UniProt O35144). The experiment in a line: EMSA. Particulars: supershifted by FLAG antibody; protein in a lysate after overexpression; protein details: FLAG; label: labelled.
Data set [5] concerns TRF1 endogenous (Homo sapiens). Put plainly: EMSA. The conditions noted are these: HeLa whole cell extract, supershifted by TRF1 antibody; protein in an extract; label: labelled.

For part of these data: Results from cells or extracts need not show a direct contact. For part of these data: No signal at the amounts used counts as a negative. For part of these data: Construct, isoform or probe ends are uncertain for at least one entry.

As to “CCCTAACCCTAACCCTAACCCTAACCCTAACCCTAA [single-stranded [CCCTAA]6]”, the binding result in data set [1] is “no binding”.

On to “GTACCCGGGGATCGTGACTCTAGAGGGGCCCTAACCCTAACCCTAACCCTAACCCTAACCCTAACCCTAACCCTAACCCTAACCCTAACCCTAACCCTAACCCTAACCCGGGTCGAATTCGATCTCTAGAGTCGACCTGCAGGCATGC (double strand) [(TTAGGG)12 restriction fragment]”, for which the binding result in data set [2], in data set [3], in data set [4] and in data set [5] was “binds” throughout.

As for “TTAGGGTTAGGGTTAGGGTTAGGGTTAGGGTTAGGG [single-stranded [TTAGGG]6]”, the binding result in data set [1] is given as “no binding”.
